Measurements reported in PubChem BioAssay AID1508597 (Cure First, 2020)
Assay: 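Knock-downs altering ovarian cancer cell survival with or without PARP inhibitor rucaparib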 (primary screen). System: human ovarian carcinoma lines grown from tumours: OCI-P5x (papillary serous) and OCI-C5x (clear cell). Knock-down reagent: siRNA pool against human genes, 1.25 pmol siRNA per well. Time to read-out: 72 h or 96 h, depending on the cell culture. Conditions: rucaparib 20 µM (about IC30) or vehicle, present until read-out. Rucaparib or vehicle: Vehicle. Cell line: OCI-C5x (clear cell). Measurement: 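Luminescent ATP-based viability assay read 72 or 96 h after transfection, depending on culture, given as normalised percent viability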. Scale: viability, normalised: higher = more viable cells remaining. Hit rule: 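a well counts as a hit if its normalised viability is under 80 percent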. Meaning of the calls: active = viability under 80%; inactive = viability 80% or more.
Shown is an unselected part of the about 2,100 reagents, in one setting of the screen. 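Calls flag viability under 80% in either arm, not effects specific to rucaparib; the reference for percent is not stated.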 The numbers tell different reagents against one gene apart. A reagent listed more than once was tested more than once; the source does not tell the runs apart. Not stated in the record: the 100% reference.

Gene	reagent	technical replicate	viability, normalised (%)	Outcome
BRDT (GeneID 676)	1	1	50.7	active
BRDT (GeneID 676)	1	1	50.8	active
BRDT (GeneID 676)	1	2	50.4	active
BRDT (GeneID 676)	1	2	49.1	active
BRDT (GeneID 676)	1	3	40.7	active
BRDT (GeneID 676)	1	3	60	active
ALK (GeneID 238)	1	1	55.2	active
ALK (GeneID 238)	1	2	46.8	active
ALK (GeneID 238)	1	3	55.1	active
GAK (GeneID 2580)	1	1	46.3	active
GAK (GeneID 2580)	1	2	54.6	active
GAK (GeneID 2580)	1	3	61.6	active
PI4KB (GeneID 5298)	1	1	43.4	active
PI4KB (GeneID 5298)	1	2	41.7	active
PI4KB (GeneID 5298)	1	3	41.4	active
PI4KB (GeneID 5298)	2	1	43.3	active
PI4KB (GeneID 5298)	2	2	51.3	active
PI4KB (GeneID 5298)	2	3	34.5	active
PTP4A2 (GeneID 8073)	1	1	73.3	active
PTP4A2 (GeneID 8073)	1	2	73.5	active
PTP4A2 (GeneID 8073)	1	3	63.9	active
PTGR1 (GeneID 22949)	1	1	52	active
PTGR1 (GeneID 22949)	1	2	46	active
PTGR1 (GeneID 22949)	1	3	49.5	active
HMG20A (GeneID 10363)	1	1	61.1	active
HMG20A (GeneID 10363)	1	2	45.6	active
HMG20A (GeneID 10363)	1	3	78.5	active
HMG20B (GeneID 10362)	1	1	52.6	active
HMG20B (GeneID 10362)	1	2	44.6	active
HMG20B (GeneID 10362)	1	3	65.2	active

8 consecutive entries already listed:
Gene	reagent	technical replicate	viability, normalised (%)	Outcome
BRDT (GeneID 676)	1	2	50.4	active
BRDT (GeneID 676)	1	2	49.1	active
BRDT (GeneID 676)	1	3	40.7	active
BRDT (GeneID 676)	1	3	60	active
ALK (GeneID 238)	1	1	55.2	active
ALK (GeneID 238)	1	2	46.8	active
ALK (GeneID 238)	1	3	55.1	active
GAK (GeneID 2580)	1	1	46.3	active

Additional results:
Gene	reagent	technical replicate	viability, normalised (%)	Outcome
EPHB2 (GeneID 2048)	1	1	64.6	active
EPHB2 (GeneID 2048)	1	2	65.1	active
EPHB2 (GeneID 2048)	1	3	62.4	active
ROS1 (GeneID 6098)	1	1	69	active
ROS1 (GeneID 6098)	1	2	52.5	active
ROS1 (GeneID 6098)	1	3	47.9	active
TRIB1 (GeneID 10221)	1	1	48.6	active
TRIB1 (GeneID 10221)	1	1	47.3	active
TRIB1 (GeneID 10221)	1	2	46.7	active
TRIB1 (GeneID 10221)	1	2	43.4	active
TRIB1 (GeneID 10221)	1	3	29.5	active
TRIB1 (GeneID 10221)	1	3	40.4	active
EYA2 (GeneID 2139)	1	1	41.4	active
EYA2 (GeneID 2139)	1	2	39.8	active
EYA2 (GeneID 2139)	1	3	46.6	active
FOXS1 (GeneID 2307)	1	1	54.9	active
FOXS1 (GeneID 2307)	1	2	57.5	active
FOXS1 (GeneID 2307)	1	3	57.4	active
STK32C (GeneID 282974)	1	1	44.8	active
STK32C (GeneID 282974)	1	2	49.8	active
STK32C (GeneID 282974)	1	3	58.6	active
AIPL1 (GeneID 23746)	1	1	44.6	active
AIPL1 (GeneID 23746)	1	2	45	active
AIPL1 (GeneID 23746)	1	3	56.2	active
MPLKIP (GeneID 136647)	1	1	59.8	active
MPLKIP (GeneID 136647)	1	2	63.7	active
MPLKIP (GeneID 136647)	1	3	55.2	active
